PubChem BioAssay AID1259308, NCATS | 2017
Screen: 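Knock-downs that increase output of a recombinant reporter protein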 (primary screen). Cells: human HEK293 embryonic kidney cells stably expressing firefly luciferase (HEK-CMV-Luc2-Hygro). Knock-down reagent: single siRNA against human genes, 0.8 pmol siRNA per well. Time to read-out: 72 h. Measurement: 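Reporter luminescence and viable-cell signal on separate replicate plates, given as percent of non-targeting control and median/MAD z-scores, plus per-cell luciferase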. Reading the numbers: total luciferase, z-score: higher = more reporter protein produced. Rule for the call: 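Active when the median/MAD z-score for overall luciferase is greater than 3; a gene was taken forward for validation with new siRNAs if at least two of its three siRNAs passed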. Calls: active = raised luciferase; inactive = no rise.
The deposit covers about 59,000 reagents; shown is a part drawn at random. Over the whole deposit, about 1,510 (2.6%) were called active. 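Calls use total luciferase alone and ignore viability, so some active siRNAs may act by altering cell number.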 Unmarked entries are inactive. The numbers tell different reagents against one gene apart. Not all columns of the deposit are shown.

After knock-down of SHISA7 (shisa family member 7) #1, the record shows total luciferase, z-score 0.413. For SHISA7 (shisa family member 7) #2, the values are total luciferase, z-score 0.979. SHISA7 (shisa family member 7) #3 gave total luciferase, z-score 0.872. Silencing of KMT2B (lysine methyltransferase 2B) #1 came out at: total luciferase, z-score -0.223. For KMT2B (lysine methyltransferase 2B) #2 the deposit lists total luciferase, z-score -0.0329. KMT2B (lysine methyltransferase 2B) #3 gave total luciferase, z-score 0.792.

For RPS8P4 (ribosomal protein S8 pseudogene 4) #1, the values are total luciferase, z-score -2.55. With knock-down of RPS8P4 (ribosomal protein S8 pseudogene 4) #2, the screen gave total luciferase, z-score 1.78. RPS8P4 (ribosomal protein S8 pseudogene 4) #3 showed total luciferase, z-score 0.184. Against SDR9C7 (short chain dehydrogenase/reductase family 9C member 7) #1, the values are total luciferase, z-score -0.831. Against SDR9C7 (short chain dehydrogenase/reductase family 9C member 7) #2, the entry reads total luciferase, z-score 1.84. Against SDR9C7 (short chain dehydrogenase/reductase family 9C member 7) #3 the deposit lists total luciferase, z-score -0.0846.

Targets listed so far whose gene name begins with R or r (3):
RPS8P4 (ribosomal protein S8 pseudogene 4) #1: total luciferase, z-score = -2.55
RPS8P4 (ribosomal protein S8 pseudogene 4) #2: total luciferase, z-score = 1.78
RPS8P4 (ribosomal protein S8 pseudogene 4) #3: total luciferase, z-score = 0.184
